Measurements: PMC12670160, “A drug-repurposing screen of FDA- and EMA-approved drugs identifies two NF-κB inhibitors active against eumycetoma” (Journal of Antimicrobial Chemotherapy, 2025)
Structures can show the parent of a compound that is named as a salt. Among all 5,300 compounds or so, about 130 (2.5%) showed an effect of 50% or more. This is one part of the list. Square brackets hold non-standard residues; d marks the D form. Peptide text beside a SMILES is read from it. dPhe(4-Cl) = N[C@H](Cc1ccc(Cl)cc1)C(=O)O; d2Nal = N[C@H](Cc1ccc2ccccc2c1)C(=O)O; dCit = NC(=O)NCCC[C@@H](N)C(=O)O; d3Pal = N[C@H](Cc1cccnc1)C(=O)O

tested on: M. mycetomatis strain mm55; conditions: primary screen, metabolic activity vs growth control; 96 h, 2 µM; inhibitor

| SMILES | % viability [%] |
| --- | --- |
| CSc1nc(-c2ccc(F)cc2)c(-c2ccnc(NC(C)c3ccccc3)c2)[nH]1 (centres unmarked) [ONC0000840, ml3403] | 74.14 |
| C=CCN1C[C@H](C(=O)N(CCCN(C)C)C(=O)NCC)C[C@@H]2c3cccc4[nH]cc(c34)C[C@H]21 [ONC0003469, cabergoline] | 67.83 |
| CNC1CCCN(c2c(F)cc3c(=O)c(C(=O)O)cn(C4CC4)c3c2OC)C1 (centres unmarked) [ONC0004924, balofloxacin] | 134.1 |
| CN1CCN(CC/C=C2/c3ccccc3Sc3ccc(S(=O)(=O)N(C)C)cc32)CC1 [ONC0003858, thiothixene] | 64.86 |
| COc1ccc(C(=O)/C(Cc2cc(OC)c(OC)c(OC)c2)=C(\C(=O)O)c2ccc3c(c2)OCO3)cc1 [ONC0002114, pd156707] | 95.79 |
| CC[C@H]1[C@@H](O)[C@@H]2[C@H](CC[C@]3(C)[C@@H]([C@H](C)CCC(=O)O)CC[C@@H]23)[C@@]2(C)CC[C@@H](O)C[C@@H]12 [ONC0000794, int747] | 88.53 |
| C[C@@H](Oc1ccc2[nH]nc(/C=C/c3cnn(CCO)c3)c2c1)c1c(Cl)cncc1Cl [ONC0001103, ly2874455] | 68.7 |
| CC(C)(C=O)Cc1cc(C(C)(C)C)c(O)c(C(C)(C)C)c1 [ONC0001447, cgp13501] | 107.5 |
| CCCCN1[C@@H]2CC[C@H]1C[C@@H](OC(c1ccc(F)cc1)c1ccc(F)cc1)C2 [ONC0003046, jhw007] | 64.39 |
| CCC[C@H](NC(=O)/C(C#N)=C/c1cccc(Br)n1)c1ccccc1 [ONC0005240, degrasyn wp1130] | 112.8 |
| Cn1c2cc([S+](C)[O-])sc2c2cnn(Cc3cccc(N)c3)c(=O)c21 (centres unmarked) [ONC0001067, tepp46] | 56.1 |
| COC(=O)c1ccc(N2CCN(C)CC2)c(NC(=O)c2cccc(OC)c2)c1 [ONC0003556, wdr50103] | 126.9 |
| Oc1ccc([C@@H]2Oc3ccc(O)cc3[C@@H]3CCC[C@@H]32)cc1 [ONC0003816, erteberel] | 55.32 |
| Cc1cc(-c2nc(C(=O)Nc3cn(C4CCOCC4)nc3C(N)=O)co2)ccn1 [ONC0003602, as2444697] | 131.8 |
| Cc1cc(NC(=O)C(c2ccccc2)N2CCCc3ccccc32)no1 (centres unmarked) [ONC0001364, cim0216] | 123.8 |
| C[C@@]1(CO)[C@H](O)CC[C@@]2(C)[C@H]1CC[C@H]1C[C@@H]3C[C@@]12CC[C@]3(O)CO [ONC0003485, aphidicolin] | 62.35 |
| CC/C(=C(/CC)c1ccc(OP(=O)(O)O)cc1)c1ccc(OP(=O)(O)O)cc1 [ONC0003658, 3hexene34diylbis41phenylenebisdihydrogen phosphate] | 81.1 |
| Clc1cccc(Cl)c1N=C1NCCN1 [ONC0004193, clonidine hydrochloride] | 96.49 |
| C[C@@H](O)[C@H](N)C(=O)O [ONC0005364, lthreonine] | 105 |
| C=C1/C(=C\C=C2/CCC[C@]3(C)[C@@H]([C@H](C)CCCC(C)(C)O)CC[C@@H]23)C[C@@H](O)C[C@@H]1O [ONC0004894, calcitriol rocaltrol] | 111.5 |
| CC(C)(O/N=C(\C(=O)N[C@@H]1C(=O)N2C(C(=O)[O-])=C(C[n+]3ccccc3)CS[C@H]12)c1csc(N)n1)C(=O)O [ONC0005610, ceftazidime] | 74.59 |
| COc1cc2c(cc1NS(=O)(=O)c1ccc(Br)cc1C)n(C)c(=O)n2C [ONC0003061, of1] | 102.7 |
| C[C@@H]1C[C@H]2[C@@H]3CCC4=CC(=O)C=C[C@]4(C)[C@@]3(Cl)[C@@H](O)C[C@]2(C)[C@@]1(O)C(=O)CCl [ONC0005386, mometasone] | 83.14 |
| COC(=O)C1=C(C)NC(C)=C(C(=O)OC/C=C/c2ccccc2)C1c1cccc([N+](=O)[O-])c1 (centres unmarked) [ONC0003415, pranidipine] | 94.69 |
| N=C(N)NCCC(=O)O [ONC0005527, guanidinopropionicacid] | 129.1 |
| CCc1c2c(nc3ccc(OC(=O)N4CCC(N5CCCCC5)CC4)cc13)-c1cc3c(c(=O)n1C2)COC(=O)[C@]3(O)CC [ONC0003030, irinotecan] | 94.75 |
| C[n+]1ccc(C(=O)NCc2ccccc2)cc1 [ONC0003175, enisamiumiodide] | 85.48 |

Quoted from the listing:
Under % viability [%], C[C@@]1(CO)[C@H](O)CC[C@@]2(C)[C@H]1CC[C@H]1C[C@@H]3C[C@@]12CC[C@]3(O)CO [ONC0003485, aphidicolin] has 62.35
Under % viability [%], C[C@@H](Oc1ccc2[nH]nc(/C=C/c3cnn(CCO)c3)c2c1)c1c(Cl)cncc1Cl [ONC0001103, ly2874455] has 68.7

(listing goes on)

| SMILES | % viability [%] |
| --- | --- |
| CC(C)=CCC/C(C)=C/CNCCNC1C2CC3CC(C2)CC1C3 (centres unmarked) [ONC0002271, sq109] | 59.4 |
| COc1cc2c(cc1OC)[C@@H]1CC(=O)[C@@H](CC(C)C)CN1CC2 [ONC0002682, tetrabenazine] | 76.22 |
| CC(C)(C)NCC(O)c1ccccc1Cl (centres unmarked) [ONC0002321, tulobuterol hydrochloride] | 66.86 |
| C[C@H]1[C@H](NC(=O)/C(=N\OC(C)(C)C(=O)O)c2csc(N)n2)C(=O)N1S(=O)(=O)O [ONC0004310, aztreonam] | 85.25 |
| CCCN(CCC)[C@@H]1CCc2c(OC)cccc2[C@@H]1C [ONC0001853, uh232] | 68.34 |
| OC[C@H]1O[C@@H](OCCc2ccc(O)cc2)[C@H](O)[C@@H](O)[C@@H]1O [ONC0005198, salidroside rhodioloside] | 157.1 |
| CNCCC=C1c2ccccc2CCc2ccccc21 [ONC0000417, nortriptyline hydrochloride] | 62.43 |
| CC(=O)N[C@H](Cc1ccc2ccccc2c1)C(=O)N[C@H](Cc1ccc(Cl)cc1)C(=O)N[C@H](Cc1cccnc1)C(=O)N[C@@H](CO)C(=O)N[C@@H](Cc1ccc(O)cc1)C(=O)N[C@H](CCCNC(N)=O)C(=O)N[C@@H](CC(C)C)C(=O)N[C@@H](CCCNC(=N)N)C(=O)N1CCC[C@H]1C(=O)N[C@H](C)C(N)=O [ONC0002249, cetrorelix acetate] (Ac-[d2Nal][dPhe(4-Cl)][d3Pal]SY[dCit]LRP[dA]-NH2) | 190.6 |
| Cn1cc(C2=C(c3ccc(Cl)cc3Cl)C(=O)NC2=O)c2ccccc21 [ONC0001729, sb216763] | 67.05 |
| O=C1Nc2cc(Br)ccc2/C1=C1/Nc2ccccc2/C1=N\O [ONC0000166, gsk3inhibitorix] | 89.34 |
| C=C1/C(=C\C=C2/CCC[C@]3(C)[C@@H]([C@H](C)CCCC(O)(C(F)(F)F)C(F)(F)F)CC[C@@H]23)C[C@@H](O)C[C@@H]1O [ONC0002042, falecalcitriol] | 65.6 |
| O=C(NC(NC(=S)Nc1ccc(F)c([N+](=O)[O-])c1)C(Cl)(Cl)Cl)C(c1ccccc1)c1ccccc1 (centres unmarked) [ONC0002722, cgk733] | 77.49 |
| CN(C)c1cccc(Oc2cnc(Nc3cccc(O)c3)nc2)c1 [ONC0000163, sen1269] | 90.25 |
| COc1cc(OC)c(/C=C2/C(=O)Nc3ccccc32)c(OC)c1 [ONC0000989, ic261] | 74.99 |
| CC[C@H](C)[C@H]1O[C@]2(CC[C@@H]1C)C[C@@H]1C[C@@H](C/C=C(\C)[C@@H](O[C@H]3C[C@H](OC)[C@@H](O[C@H]4C[C@H](OC)[C@@H](O)[C@H](C)O4)[C@H](C)O3)[C@@H](C)/C=C/C=C3\CO[C@@H]4[C@H](O)C(C)=C[C@@H](C(=O)O1)[C@]34O)O2 [ONC0003329, ivermectin] | 60.96 |
| Oc1cc(CNC(=S)/C=C/c2cc(O)c(O)c(Br)c2)cc(O)c1O [ONC0000999, nt157] | 50.94 |
| CC[C@H](C)[C@@H]([C@@H](CC(=O)N1CCC[C@H]1[C@H](OC)[C@@H](C)C(=O)N[C@@H](Cc1ccccc1)c1nccs1)OC)N(C)C(=O)[C@@H](NC(=O)[C@H](C(C)C)N(C)C)C(C)C [ONC0003667, dolastin10] | 74.88 |
| CCc1cc(C(N)=S)ccn1 [ONC0000728, ethionamide] | 82.77 |
| NC(Cn1ccc(=O)n(Cc2ccccc2C(=O)O)c1=O)C(=O)O (centres unmarked) [ONC0000754, ubp302] | 93.89 |
| Cc1ccc(-c2n[nH]c3c2C(c2cccc(O)c2)N(c2ccc(C(=O)O)cc2)C3=O)cc1 (centres unmarked) [ONC0000222, cid16020046] | 94.06 |
| CC[C@@H]1CN2C(=O)N(C)c3nc(-c4ccccc4)[nH]c3C2=N1 [ONC0002512, psb11] | 71 |
| CC(C)(C)c1ccc(CN(Cc2cccc(OCC(=O)O)c2)S(=O)(=O)c2cccnc2)cc1 [ONC0001119, evatanepag] | 63.47 |
| CCC(=O)[C@@]1(C)[C@H](C)C[C@H]2[C@@H]3CCC4=CC(=O)C=C[C@]4(C)[C@H]3[C@@H](O)C[C@@]21C [ONC0002928, rimexolone] | 55.04 |
| CC(=O)Nc1ccc(S(=O)(=O)Nc2ccc([N+](=O)[O-])cc2)cc1 [ONC0003086, sulfanitran] | 68.87 |
| Cc1ccc(C(=O)Nc2ccc(S(=O)(=O)O)c3cc(S(=O)(=O)O)cc(S(=O)(=O)O)c23)cc1NC(=O)c1cccc(NC(=O)Nc2cccc(C(=O)Nc3cc(C(=O)Nc4ccc(S(=O)(=O)O)c5cc(S(=O)(=O)O)cc(S(=O)(=O)O)c45)ccc3C)c2)c1 [ONC0000538, suramin hexasodium] | 88.85 |
| NC(=O)c1ncn([C@@H]2O[C@H](CO)[C@@H](O)[C@H]2O)c1O [ONC0005206, mizoribine bredinin] | 136.6 |
